Paper PMC8856959

Amino acid sequences for entries named in this document (tags omitted).
UniProt Q15397: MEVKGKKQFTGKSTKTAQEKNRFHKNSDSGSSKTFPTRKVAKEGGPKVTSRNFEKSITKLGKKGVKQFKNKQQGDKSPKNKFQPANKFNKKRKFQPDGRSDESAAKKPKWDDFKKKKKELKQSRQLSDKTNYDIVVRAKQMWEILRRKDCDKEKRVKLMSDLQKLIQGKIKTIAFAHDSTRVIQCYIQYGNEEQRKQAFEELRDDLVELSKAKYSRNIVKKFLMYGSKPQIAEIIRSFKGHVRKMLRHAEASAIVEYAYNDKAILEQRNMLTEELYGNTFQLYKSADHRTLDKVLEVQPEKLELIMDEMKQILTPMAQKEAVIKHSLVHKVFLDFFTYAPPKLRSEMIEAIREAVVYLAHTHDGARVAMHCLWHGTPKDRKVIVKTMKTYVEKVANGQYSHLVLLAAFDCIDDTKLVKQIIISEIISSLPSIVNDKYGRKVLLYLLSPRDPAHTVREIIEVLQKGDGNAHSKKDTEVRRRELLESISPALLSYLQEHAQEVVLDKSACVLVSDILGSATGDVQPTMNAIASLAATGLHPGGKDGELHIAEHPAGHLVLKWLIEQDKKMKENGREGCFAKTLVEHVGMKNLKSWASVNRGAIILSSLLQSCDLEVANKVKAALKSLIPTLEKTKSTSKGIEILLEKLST
UniProt P06748: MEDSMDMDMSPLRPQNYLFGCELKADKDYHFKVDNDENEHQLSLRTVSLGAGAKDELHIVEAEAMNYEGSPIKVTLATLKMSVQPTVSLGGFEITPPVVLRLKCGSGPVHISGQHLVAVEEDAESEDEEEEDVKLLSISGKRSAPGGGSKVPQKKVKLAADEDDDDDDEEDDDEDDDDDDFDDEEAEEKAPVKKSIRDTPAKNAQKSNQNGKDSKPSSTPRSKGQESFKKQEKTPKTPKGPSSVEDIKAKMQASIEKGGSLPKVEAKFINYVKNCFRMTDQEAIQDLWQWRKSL

Molecular target: Puf-A (human (endogenous in HCT116 and H1299)) (UniProt Q15397)
Experiment: affinity purification with mass spectrometry; proteins immunoprecipitated by Puf-A antibody, analysed by mass spectrometry

binding: binds
Substance: nucleophosmin (from UniProt P06748 1-294)

These are yes or no findings as the source states them, for the method shown. In cells and extracts the contact can be indirect. These calls come from enrichment with a bait or labelling near it, and not all partners need be listed.
